{"sequences": {"note": "By UniProt entry, the sequences of proteins in these tests, tags left out.", "UniProt O43524": "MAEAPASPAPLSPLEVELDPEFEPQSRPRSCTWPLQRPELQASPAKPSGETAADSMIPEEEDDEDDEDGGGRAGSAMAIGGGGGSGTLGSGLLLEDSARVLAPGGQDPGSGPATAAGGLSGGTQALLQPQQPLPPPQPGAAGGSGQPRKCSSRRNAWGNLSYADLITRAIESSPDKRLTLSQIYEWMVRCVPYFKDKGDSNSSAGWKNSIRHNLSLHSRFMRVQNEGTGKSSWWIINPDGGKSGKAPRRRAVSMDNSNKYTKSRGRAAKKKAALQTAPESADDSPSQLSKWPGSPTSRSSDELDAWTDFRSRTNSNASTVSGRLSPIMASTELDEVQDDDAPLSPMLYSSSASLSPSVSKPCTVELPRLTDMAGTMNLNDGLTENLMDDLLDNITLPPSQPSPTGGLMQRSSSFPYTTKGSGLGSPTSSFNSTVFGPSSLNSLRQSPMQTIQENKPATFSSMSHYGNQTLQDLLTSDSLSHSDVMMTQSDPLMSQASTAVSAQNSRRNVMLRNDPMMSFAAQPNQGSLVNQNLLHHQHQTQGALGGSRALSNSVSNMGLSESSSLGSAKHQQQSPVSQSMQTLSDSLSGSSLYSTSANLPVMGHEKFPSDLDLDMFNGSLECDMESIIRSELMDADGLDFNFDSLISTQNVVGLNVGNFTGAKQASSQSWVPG", "UniProt P31751": "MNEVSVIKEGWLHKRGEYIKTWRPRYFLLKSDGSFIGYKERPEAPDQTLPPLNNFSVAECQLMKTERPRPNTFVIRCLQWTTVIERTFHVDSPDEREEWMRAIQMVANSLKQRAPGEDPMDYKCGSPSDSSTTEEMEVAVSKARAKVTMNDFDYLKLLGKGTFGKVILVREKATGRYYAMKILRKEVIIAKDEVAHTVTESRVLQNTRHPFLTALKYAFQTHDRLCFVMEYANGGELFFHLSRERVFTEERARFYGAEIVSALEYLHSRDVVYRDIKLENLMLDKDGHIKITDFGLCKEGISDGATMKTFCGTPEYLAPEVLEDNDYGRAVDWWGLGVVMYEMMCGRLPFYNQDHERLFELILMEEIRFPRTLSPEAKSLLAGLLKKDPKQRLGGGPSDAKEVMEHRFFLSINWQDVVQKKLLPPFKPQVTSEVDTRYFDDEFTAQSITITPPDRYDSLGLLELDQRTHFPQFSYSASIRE", "UniProt P31749": "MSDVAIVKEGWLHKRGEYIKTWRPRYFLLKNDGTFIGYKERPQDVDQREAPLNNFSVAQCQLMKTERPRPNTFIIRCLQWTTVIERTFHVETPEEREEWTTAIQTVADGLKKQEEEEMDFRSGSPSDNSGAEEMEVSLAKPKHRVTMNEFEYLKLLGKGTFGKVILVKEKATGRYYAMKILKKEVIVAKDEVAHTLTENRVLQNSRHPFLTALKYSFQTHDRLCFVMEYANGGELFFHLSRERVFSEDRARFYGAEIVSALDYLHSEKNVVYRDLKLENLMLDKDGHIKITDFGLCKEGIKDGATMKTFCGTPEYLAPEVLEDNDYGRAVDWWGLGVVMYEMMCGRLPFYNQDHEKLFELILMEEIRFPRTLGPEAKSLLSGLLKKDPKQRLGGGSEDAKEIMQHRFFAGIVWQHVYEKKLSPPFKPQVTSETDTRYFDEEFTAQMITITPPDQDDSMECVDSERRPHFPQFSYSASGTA"}, "source": "paper PMC6312545", "key": {"[1]": {"target": "endogenous FoxO3a (human (endogenous in Jurkat)) (UniProt O43524)", "assay": "co-IP; endogenous proteins of Jurkat T-ALL cells; FoxO3a immunoprecipitated, blotted for Akt1 or Akt2"}, "[2]": {"target": "MYC-FoxO3a (UniProt O43524)", "assay": "co-IP; HEK293T co-transfected with MYC-FoxO3a and Flag-Akt1 or Flag-Akt2; RIPA lysate 24 h later; immunoprecipitated with anti-MYC antibody, protein G PLUS-Agarose, four washes with lysis buffer; blotted with anti-MYC and anti-Akt1 or Akt2"}, "[3]": {"target": "Flag-Akt2 (UniProt P31751)", "assay": "co-IP; reciprocal: HEK293T co-transfected with MYC-FoxO3a and Flag-Akt1 or Flag-Akt2; RIPA lysate; immunoprecipitated with anti-Flag antibody (legend: Akt1/Akt2 immunoprecipitation), protein G PLUS-Agarose; blotted for FoxO3a"}}, "note": "Results are given in words; binding and its absence hold for the method and conditions named. In cells and extracts the contact can be indirect. Some binding calls cover weakened binding; strength is not graded here."}
{"substance": "Akt2 (endogenous, Jurkat) (from UniProt P31751 1-481) (enzyme)", "values": [{"measurement": "binding", "setting": "[1]", "result": "binds"}]}
{"substance": "Flag-Akt1 (from UniProt P31749 1-480) (enzyme)", "values": [{"measurement": "binding", "setting": "[2]", "result": "binds"}]}
{"substance": "Flag-Akt2 (from UniProt P31751 1-481) (enzyme)", "values": [{"measurement": "binding", "setting": "[2]", "result": "binds"}]}
{"substance": "MYC-FoxO3a (from UniProt O43524 1-673)", "values": [{"measurement": "binding", "setting": "[3]", "result": "binds"}]}
